Measured values published in the supplement of paper PMC6078165.
The reference is the same well before dosing, and untreated signal decays as well.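 Fibroblast labels name human fibroblasts: mostly primary ones from tissues such as uterus (C12385, HUF), lung (H6013), bone (Hs27A), adrenal (HADF) and skin (WS1), plus mammary HMF and breast cancer-associated Hs343T. The cancer cells are basal-like or mesenchymal-like triple-negative breast cancer lines. The paper calls a changed response a hit when it shifts by more than 3x the replicate standard deviation. The tissue of the other fibroblasts is not given here.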

System: HCC1143
Assay: relative JC-1 red fluorescence (viability) vs pre-drug, coculture with fibroblast (fraction); higher = more viable cancer cells
Experimental: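 JC-1 labelled TNBC cells cocultured 1:1 (1,500 cells each) with CellTrace Violet stained primary or stromal fibroblasts in 384-well plates in FluoroBrite medium, treated with one of 42 anticancer drugs at 0.1, 1, 10 or 100 uM. JC-1 red fluorescence (mitochondrial integrity in cancer cells only) was read by plate reader every 8 h for 72 h. Values are normalised to each well's pre-drug value. The stock of one drug was tenfold lower, so its dose labels may be too high.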

O=C(O)C1(C(=O)O)CCC1.[NH2-].[NH2-].[Pt+2] [Carboplatin]
relative JC-1 red fluorescence
Conditions | 8 h | 16 h | 24 h | 32 h | 40 h | 48 h | 56 h | 64 h | 72 h
0.1 µM, coculture fibroblast: C12385 | 0.881 | 0.804 | 0.721 | 0.647 | 0.57 | 0.512 | 0.46 | 0.414 | 0.391
0.1 µM, coculture fibroblast: H6013 | 0.779 | 0.6808 | 0.639 | 0.616 | 0.551 | 0.527 | 0.49 | 0.468 | 0.44
0.1 µM, coculture fibroblast: H6019 | 0.797 | 0.7173 | 0.67 | 0.609 | 0.562 | 0.537 | 0.485 | 0.439 | 0.399
0.1 µM, coculture fibroblast: H6076 | 0.807 | 0.762 | 0.712 | 0.701 | 0.628 | 0.6226 | 0.5888 | 0.568 | 0.586
0.1 µM, coculture fibroblast: H6231 | 0.807 | 0.784 | 0.697 | 0.621 | 0.592 | 0.562 | 0.521 | 0.492 | 0.46
0.1 µM, coculture fibroblast: HADF | 0.7137 | 0.629 | 0.587 | 0.591 | 0.498 | 0.467 | 0.43 | 0.4 | 0.381
0.1 µM, coculture fibroblast: HCFa | 0.811 | 0.732 | 0.709 | 0.693 | 0.612 | 0.587 | 0.539 | 0.502 | 0.481
0.1 µM, coculture fibroblast: HCPF | 0.802 | 0.792 | 0.722 | 0.651 | 0.632 | 0.604 | 0.564 | 0.534 | 0.517
0.1 µM, coculture fibroblast: HHSteC | 0.819 | 0.733 | 0.703 | 0.677 | 0.596 | 0.559 | 0.524 | 0.494 | 0.457
0.1 µM, coculture fibroblast: HMF | 0.808 | 0.813 | 0.744 | 0.705 | 0.649 | 0.623 | 0.588 | 0.563 | 0.54
0.1 µM, coculture fibroblast: HPFa | 0.911 | 0.821 | 0.776 | 0.689 | 0.627 | 0.597 | 0.535 | 0.487 | 0.443
0.1 µM, coculture fibroblast: HUF | 0.8622 | 0.7542 | 0.696 | 0.6119 | 0.5658 | 0.5408 | 0.4935 | 0.459 | 0.425
0.1 µM, coculture fibroblast: Hs5 | 0.834 | 0.8158 | 0.779 | 0.76 | 0.658 | 0.634 | 0.594 | 0.56 | 0.549
0.1 µM, coculture fibroblast: Hs27A | 0.685 | 0.582 | 0.549 | 0.569 | 0.434 | 0.412 | 0.363 | 0.326 | 0.303
0.1 µM, coculture fibroblast: Hs343T | 0.804 | 0.816 | 0.742 | 0.6932 | 0.643 | 0.61 | 0.567 | 0.534 | 0.521
0.1 µM, coculture fibroblast: WS1 | 0.842 | 0.754 | 0.698 | 0.627 | 0.568 | 0.518 | 0.47 | 0.431 | 0.405
1 µM, coculture fibroblast: C12385 | 0.819 | 0.767 | 0.695 | 0.617 | 0.54 | 0.491 | 0.452 | 0.405 | 0.384
1 µM, coculture fibroblast: H6013 | 0.74 | 0.698 | 0.667 | 0.659 | 0.599 | 0.586 | 0.542 | 0.53 | 0.489
1 µM, coculture fibroblast: H6019 | 0.772 | 0.699 | 0.66 | 0.602 | 0.566 | 0.543 | 0.496 | 0.451 | 0.41
1 µM, coculture fibroblast: H6076 | 0.79 | 0.753 | 0.709 | 0.681 | 0.635 | 0.625 | 0.602 | 0.59 | 0.597
1 µM, coculture fibroblast: H6231 | 0.786 | 0.7558 | 0.6852 | 0.621 | 0.571 | 0.542 | 0.5 | 0.465 | 0.456
1 µM, coculture fibroblast: HADF | 0.737 | 0.672 | 0.635 | 0.627 | 0.543 | 0.521 | 0.487 | 0.462 | 0.433
1 µM, coculture fibroblast: HCFa | 0.7702 | 0.688 | 0.644 | 0.615 | 0.532 | 0.504 | 0.4514 | 0.4177 | 0.3852
1 µM, coculture fibroblast: HCPF | 0.7604 | 0.737 | 0.677 | 0.604 | 0.581 | 0.545 | 0.505 | 0.471 | 0.458
1 µM, coculture fibroblast: HHSteC | 0.802 | 0.755 | 0.728 | 0.694 | 0.632 | 0.61 | 0.565 | 0.536 | 0.483
1 µM, coculture fibroblast: HMF | 0.783 | 0.787 | 0.746 | 0.689 | 0.669 | 0.638 | 0.59 | 0.568 | 0.5508
1 µM, coculture fibroblast: HPFa | 0.902 | 0.831 | 0.813 | 0.724 | 0.675 | 0.639 | 0.571 | 0.524 | 0.481
1 µM, coculture fibroblast: HUF | 0.884 | 0.826 | 0.787 | 0.73 | 0.695 | 0.678 | 0.636 | 0.619 | 0.593
1 µM, coculture fibroblast: Hs5 | 0.85 | 0.79 | 0.776 | 0.774 | 0.682 | 0.663 | 0.638 | 0.6192 | 0.6136
1 µM, coculture fibroblast: Hs27A | 0.735 | 0.673 | 0.616 | 0.618 | 0.497 | 0.489 | 0.444 | 0.415 | 0.385
1 µM, coculture fibroblast: Hs343T | 0.7934 | 0.84 | 0.7703 | 0.664 | 0.651 | 0.596 | 0.538 | 0.508 | 0.475
1 µM, coculture fibroblast: WS1 | 0.7872 | 0.726 | 0.688 | 0.5987 | 0.542 | 0.505 | 0.462 | 0.428 | 0.398
10 µM, coculture fibroblast: C12385 | 0.8498 | 0.7496 | 0.667 | 0.595 | 0.531 | 0.478 | 0.437 | 0.386 | 0.355
10 µM, coculture fibroblast: H6013 | 0.774 | 0.679 | 0.647 | 0.629 | 0.56 | 0.546 | 0.51 | 0.485 | 0.45
10 µM, coculture fibroblast: H6019 | 0.808 | 0.721 | 0.6824 | 0.619 | 0.576 | 0.547 | 0.498 | 0.4617 | 0.4203
10 µM, coculture fibroblast: H6076 | 0.803 | 0.781 | 0.747 | 0.721 | 0.6641 | 0.652 | 0.621 | 0.596 | 0.607
10 µM, coculture fibroblast: H6231 | 0.8259 | 0.814 | 0.73 | 0.655 | 0.634 | 0.614 | 0.571 | 0.524 | 0.496
10 µM, coculture fibroblast: HADF | 0.7525 | 0.6713 | 0.6327 | 0.6232 | 0.5413 | 0.518 | 0.482 | 0.456 | 0.428
10 µM, coculture fibroblast: HCFa | 0.775 | 0.686 | 0.664 | 0.644 | 0.57 | 0.533 | 0.5 | 0.466 | 0.443
10 µM, coculture fibroblast: HCPF | 0.816 | 0.8224 | 0.764 | 0.675 | 0.6675 | 0.629 | 0.584 | 0.54 | 0.523
10 µM, coculture fibroblast: HHSteC | 0.804 | 0.727 | 0.687 | 0.657 | 0.584 | 0.55 | 0.513 | 0.487 | 0.455
10 µM, coculture fibroblast: HMF | 0.79534 | 0.825 | 0.742 | 0.6696 | 0.6512 | 0.6241 | 0.5861 | 0.552 | 0.523
10 µM, coculture fibroblast: HPFa | 0.914 | 0.849 | 0.792 | 0.7 | 0.644 | 0.601 | 0.543 | 0.493 | 0.452
10 µM, coculture fibroblast: HUF | 0.889 | 0.7776 | 0.723 | 0.6389 | 0.587 | 0.5478 | 0.494 | 0.4556 | 0.419
10 µM, coculture fibroblast: Hs5 | 0.845 | 0.85 | 0.786 | 0.747 | 0.664 | 0.626 | 0.592 | 0.553 | 0.55
10 µM, coculture fibroblast: Hs27A | 0.7053 | 0.6242 | 0.571 | 0.5839 | 0.458 | 0.445 | 0.415 | 0.401 | 0.407
10 µM, coculture fibroblast: Hs343T | 0.811 | 0.811 | 0.756 | 0.718 | 0.674 | 0.646 | 0.61 | 0.576 | 0.546
10 µM, coculture fibroblast: WS1 | 0.856 | 0.766 | 0.706 | 0.634 | 0.574 | 0.532 | 0.488 | 0.438 | 0.399
100 µM, coculture fibroblast: C12385 | 0.8068 | 0.75 | 0.702 | 0.657 | 0.6 | 0.572 | 0.56 | 0.53 | 0.526
100 µM, coculture fibroblast: H6013 | 0.778 | 0.731 | 0.712 | 0.71 | 0.67 | 0.678 | 0.655 | 0.648 | 0.611
100 µM, coculture fibroblast: H6019 | 0.815 | 0.752 | 0.719 | 0.659 | 0.632 | 0.619 | 0.583 | 0.556 | 0.542
100 µM, coculture fibroblast: H6076 | 0.8249 | 0.768 | 0.749 | 0.737 | 0.681 | 0.681 | 0.679 | 0.674 | 0.702
100 µM, coculture fibroblast: H6231 | 0.7998 | 0.786 | 0.7157 | 0.6197 | 0.6081 | 0.5739 | 0.532 | 0.5014 | 0.4909
100 µM, coculture fibroblast: HADF | 0.758 | 0.735 | 0.713 | 0.726 | 0.663 | 0.663 | 0.647 | 0.638 | 0.622
100 µM, coculture fibroblast: HCFa | 0.827 | 0.8 | 0.779 | 0.78 | 0.724 | 0.718 | 0.688 | 0.673 | 0.638
100 µM, coculture fibroblast: HCPF | 0.807 | 0.78 | 0.732 | 0.653 | 0.645 | 0.619 | 0.588 | 0.554 | 0.54
100 µM, coculture fibroblast: HHSteC | 0.84 | 0.81 | 0.787 | 0.764 | 0.718 | 0.7 | 0.674 | 0.659 | 0.616
100 µM, coculture fibroblast: HMF | 0.8011 | 0.82 | 0.747 | 0.6649 | 0.658 | 0.624 | 0.57859 | 0.5452 | 0.522
100 µM, coculture fibroblast: HPFa | 0.882 | 0.81187 | 0.788 | 0.694 | 0.639 | 0.617 | 0.568 | 0.5429 | 0.5168
100 µM, coculture fibroblast: HUF | 0.8284 | 0.733 | 0.675 | 0.6 | 0.544 | 0.518 | 0.467 | 0.439 | 0.411
100 µM, coculture fibroblast: Hs5 | 0.855 | 0.831 | 0.7987 | 0.7745 | 0.7086 | 0.686 | 0.66 | 0.648 | 0.648
100 µM, coculture fibroblast: Hs27A | 0.715 | 0.6907 | 0.668 | 0.694 | 0.609 | 0.631 | 0.614 | 0.615 | 0.59
100 µM, coculture fibroblast: Hs343T | 0.78995 | 0.768 | 0.7081 | 0.633 | 0.592 | 0.558 | 0.513 | 0.496 | 0.463
100 µM, coculture fibroblast: WS1 | 0.808 | 0.74 | 0.7034 | 0.642 | 0.596 | 0.556 | 0.525 | 0.502 | 0.484
